These are yes or no findings as the source states them, for the method shown. In cells and extracts the contact can be indirect.
Target: Mcl-1 (human (endogenous in XG-2 and KMS-12PE)), Q07820
Assay: co-IP; endogenous proteins; XG-2 and KMS-12PE lysates (1% digitonin lysis buffer) immunoprecipitated with anti-Bcl-2 or anti-Mcl-1 antibodies, western blot
Settings: remark: other sources report otherwise

binding: no binding
B1: Bik, Q13323 1-160 (protein)
chain: MSEVRPLSRDILMETLLYEQLLEPPTMEVLGMTDSEEDLDPMEDFDSLECMEGSDALALRLACIGDEMDVSLRAPRLAQLSEVAMHSLGLAFIYDQTEDIRDVLRSFMDGFTTLKENIMRFWRSPNPGSWVSCEQVLLALLLLLALLLPLLSGGLHLLLK

From article PMC3008608
